PubChem BioAssay AID1259424, University of Nebraska Medical Center – 2018
Here is a random part of about 14,000 deposited reagents. 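Higher correlation or smaller distance means closer resemblance to KSR1 loss; control wells, including KSR1 knockdowns, recur on many plates.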 Further read-outs or replicates are left out here. The record does not give: the time to read-out.

Aim: 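Rank knockdowns across the genome by resemblance to the KSR1 depletion profile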 (primary screen)
Cells: human HCT116 colon cancer cells
Reagents: siRNA pool against human genes, 50 nM
Detection: 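Six signature mRNAs by branched-DNA multiplex assay, scaled to two housekeeping genes and non-targeting median, log2; matched to mean KSR1 knockdown profile by Pearson correlation and euclidean distance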
Reading the numbers: mean correlation with KSR1 profile: higher = expression change more like KSR1 knockdown

EXOSC4 | mean correlation with KSR1 profile = -0.553
PEX19 | mean correlation with KSR1 profile = 0.569
PRRG4 | mean correlation with KSR1 profile = -0.552
MOB2 | mean correlation with KSR1 profile = 0.298
FGF4 | mean correlation with KSR1 profile = -0.241
PKN1 | mean correlation with KSR1 profile = 0.638
ZNF143 | mean correlation with KSR1 profile = -0.137
SLC30A6 | mean correlation with KSR1 profile = -0.628
DDX43 | mean correlation with KSR1 profile = -0.425
KIR2DS3 | mean correlation with KSR1 profile = -0.185
PIGG | mean correlation with KSR1 profile = -0.16
CREBBP | mean correlation with KSR1 profile = -0.324

2 successive records from above, quoted:
PIGG | mean correlation with KSR1 profile = -0.16
CREBBP | mean correlation with KSR1 profile = -0.324
